Data as given in PubChem BioAssay AID1259254 (NCATS, 2017).

- Purpose: 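Finding genes that stop cells copying their DNA twice in one cycle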 (primary screen)
- Cells: human HCT116 colorectal cancer cells
- Reagent: single siRNA against human genes
- Time to read-out: 3 days
- Measurement: 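Nuclei stained with Hoechst and imaged; cell-cycle phase assigned by DNA content; G2 share scaled per plate, non-targeting siRNA 0%, GMNN siRNA 100%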
- Direction: G2 robust z-score and G2 cells, % of GMNN control: higher = more G2 cells, more excess DNA replication
- Call rule: 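Active siRNAs have a G2 robust z of 5 or more median absolute deviations over the median, which in these data means about 38% or higher of GMNN control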
In all, the deposit lists about 59,000 reagents; below is an unselected part. About 1,550 of them (2.6%) count as active. 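G2 share is only a proxy for re-replication; each gene was hit by three separate siRNAs, and active genes were retested.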 Unmarked entries are inactive. Reagents against one gene are numbered here. Further read-outs or replicates are left out here. No sequences are given here. The record does not give: the amount of reagent.

For CYB5B #1 the deposit lists G2 robust z-score 1.7; G2 cells, % of GMNN control 14.9.
CYB5B #2 scored G2 robust z-score -0.658; G2 cells, % of GMNN control -1.66.
Silencing of CYB5B #3 gave: G2 robust z-score -0.679; G2 cells, % of GMNN control -1.81.
Silencing of UBE2HP1 #1 resulted in: G2 robust z-score -0.228; G2 cells, % of GMNN control 1.37.
After knock-down of UBE2HP1 #2 the results were G2 robust z-score 0.901; G2 cells, % of GMNN control 9.31.
UBE2HP1 #3 scored G2 robust z-score 1.02; G2 cells, % of GMNN control 10.2.
Against SPIRE2 #1 the deposit lists G2 robust z-score -0.594; G2 cells, % of GMNN control -1.21.
Silencing of SPIRE2 #2 resulted in: G2 robust z-score -0.426; G2 cells, % of GMNN control -0.0331.
With knock-down of SPIRE2 #3, the screen gave G2 robust z-score 0.341; G2 cells, % of GMNN control 5.36.
HASPIN #1 showed G2 robust z-score 1.41; G2 cells, % of GMNN control 12.9.
HASPIN #2 showed G2 robust z-score -0.522; G2 cells, % of GMNN control -0.706.
Silencing of HASPIN #3 came out at: G2 robust z-score -0.0439; G2 cells, % of GMNN control 2.66.
For CCER1 #1 the deposit lists G2 robust z-score -0.0782; G2 cells, % of GMNN control 2.42.
With knock-down of CCER1 #2, the screen gave G2 robust z-score 0.541; G2 cells, % of GMNN control 6.77.
CCER1 #3 gave G2 robust z-score -0.33; G2 cells, % of GMNN control 0.649.
PIK3R3 #1 gave G2 robust z-score 0.292; G2 cells, % of GMNN control 5.02.
For PIK3R3 #2, the entry reads G2 robust z-score 0.138; G2 cells, % of GMNN control 3.94.
PIK3R3 #3 gave G2 robust z-score -0.0482; G2 cells, % of GMNN control 2.63.
With knock-down of ZPBP2 #1 the results were G2 robust z-score 1.37; G2 cells, % of GMNN control 12.6.
Against ZPBP2 #2 the deposit lists G2 robust z-score -0.965; G2 cells, % of GMNN control -3.83.
With knock-down of ZPBP2 #3, the record shows G2 robust z-score -0.138; G2 cells, % of GMNN control 2.
For ATG3 #1, the values are G2 robust z-score -0.103; G2 cells, % of GMNN control 2.25.
ATG3 #2 showed G2 robust z-score 1.2; G2 cells, % of GMNN control 11.4.
Against ATG3 #3 the deposit lists G2 robust z-score -0.908; G2 cells, % of GMNN control -3.42.

Targets listed so far whose gene name begins with A or a:
ATG3 #1 — G2 robust z-score = -0.103; G2 cells, % of GMNN control = 2.25
ATG3 #2 — G2 robust z-score = 1.2; G2 cells, % of GMNN control = 11.4
ATG3 #3 — G2 robust z-score = -0.908; G2 cells, % of GMNN control = -3.42
